Shown are results outside the selection of hits, which stands elsewhere. Records with an inconclusive call do not appear. Calls of active or inactive are those of the source. Unless noted, calls come from the whole dose curve; as a rule, active = well fitted curve in the direction sought with a large enough effect; inconclusive = small, poorly fitted or top-dose-only effect, or another doubt; inactive = no such curve, though single readings can be large; an effect the other way counts as inactive or inconclusive.
What was measured:
[1] = biological target: Cellular tumor antigen p53 (Homo sapiens) (UniProt P04637); assay: Primary qHTS for small molecule compounds that upregulate eGFP-tagged delta133p53alpha (in N-terminal) cells. (AID 2060322); conditions: NCI-H358 eGFP-delta133p53alpha fluorescence, 24 h; stronger effect = higher value;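 note: cells pre-induced with doxycycline then dosed without doxycycline; 0% = DMSO vehicle and 100% = reference activator; nearly all actives have a fitted effect of over 75% in size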
From the text: Assay Development and Screening Technology
National Center for Advancing Translational Sciences (NCATS),
National Institute of Health (NIH), Rockville, Maryland
Cellular senescence (CS) is one of the hallmarks of aging and age-related diseases. Senescent cells are characterized by an irreversible growth arrest, an increase in senescence-associated beta-galactosidase (SA-beta-gal) activity and p16INK4a expression, an activation of the DNA damage response pathways, and the emergence of a senescence-associated secretory phenotype (SASP).
Delta133p53alpha, a human/primate-specific p53 protein isoform, delays or inhibits the induction of CS and SASP in various types of human cells, including progeria-derived fibroblasts, primary normal astrocytes, and CD8+ T lymphocytes. Induction of delta133p53alpha with small molecule compounds may provide therapeutic opportunities for inhibition of senescence/SASP-associated pathologies in progeria syndromes, astrocyte-mediated neuroprotection in neurodegenerative diseases, and possibly prevention and treatment of a wider range of senescence- and aging-associated diseases.
Here we report the development and validation of a cell-based quantitative high throughput screening (qHTS) assay in 1,536-well format. This qHTS assay uses the NCI-H358 cell line with doxycycline-inducible expression of enhanced green fluorescent protein (eGFP)-tagged delta133p53alpha, which allows efficient and highly quantitative measurement of the protein levels.
PROTOCOL TABLE (as described by Inglese J, Shamu CE and Guy RK. 2007)
SEQUENCE No. (e.g., 1, 2, 3, etc.); […] (e.g., Cells, Incubation, Reagent, etc.); VALUE; DESCRIPTION.
1; Cells; 4uL; 800 doxycycline treated cells / well in doxycycline-free media, 1536-well black, clear-bottom low base Aurora microplates.
2; Compounds; 23 nL; Kalypsis pin tool (Wako) equipped with 1536-well pin heads, 5-azacytidine positive control.
3; Incubation; 24 hr; 37C, 5% CO2; 95% relative humidity.
4; Aspiration; 1x; BioTek EL406 washer dispenser (Agilent).
5; Fixing; 3.5% paraformaldehyde, BioTek EL406 washer dispenser (Agilent).
6; Washing; 1x PBS; BioTek EL406 washer dispenser (Agilent).
7; Nuclei staining; 1:1000 dilution of Hoechst 33342 (Thermofisher), BioTek EL406 washer dispenser (Agilent).
8; Incubation; 20 min; in the dark at room temperature.
9; Washing; 2x, 1x PBS (ThermoFisher), BioTek EL406 washer dispenser (Agilent).
10; Reagent; 10 uL; 1x PBS per well, sealed with clear adhesive tape.
NOTES (numbers refer to sequence numbers above).
1. NCI-H358 cells expressing eGFP-tagged delta133p53alpha were grown in T75 culture flasks and treated with doxycycline for 24h, at 10 ng/ml for eGFP-D133p53a cells (N-terminal cell) and 100 ng/ml for D133p53a-eGFP cells (C-terminal cells). Cells were trypsinized, counted using a Counted 3 Automated Cell Counter (Thermo Fisher), and diluted to a concentration of 200,000 cells/ml. A Multidrop Combi Reagent Dispenser (ThermoFisher) was used to dispense 800 cells/well in […] of doxycycline-free media, into 1536-well black/clear bottom low base plates (AuroraMicroplates).
2. After plating cells, 23 nl of compound library, DMSO vehicle control or positive control (5-azacytidine) were transferred by Pin Tool (Wako). The plate map layout was the same for each plate: (column 1) non-doxycycline treated cells + DMSO vehicle control; (column 2) doxycycline treated cells + DMSO vehicle control baseline; (column 3) doxycycline treated cells + positive control 57.5 uM final concentration 5-azacytidine; (column 4) doxycycline treated cells + serial dilution of 5-azacytidine, 16-point 1:2 titration spanning 1.8 nM to […] final concentration; (columns 5-48) doxycycline treated cells + titration of library compounds.
3. Cells were incubated at 37 °C, 5 % CO2, 95% RH with breathable metal lid for 24h.
4-10. […] After two washes, 10 ul of 1X PBS (Thermo Fisher) was dispensed to each well. Clear adhesive plate seals (VWR) were applied and plates stored at 4 °C.
11. […]

Sequences of proteins named here, by UniProt entry; tags and fusion partners are left off.
UniProt P04637, whole entry, looked up: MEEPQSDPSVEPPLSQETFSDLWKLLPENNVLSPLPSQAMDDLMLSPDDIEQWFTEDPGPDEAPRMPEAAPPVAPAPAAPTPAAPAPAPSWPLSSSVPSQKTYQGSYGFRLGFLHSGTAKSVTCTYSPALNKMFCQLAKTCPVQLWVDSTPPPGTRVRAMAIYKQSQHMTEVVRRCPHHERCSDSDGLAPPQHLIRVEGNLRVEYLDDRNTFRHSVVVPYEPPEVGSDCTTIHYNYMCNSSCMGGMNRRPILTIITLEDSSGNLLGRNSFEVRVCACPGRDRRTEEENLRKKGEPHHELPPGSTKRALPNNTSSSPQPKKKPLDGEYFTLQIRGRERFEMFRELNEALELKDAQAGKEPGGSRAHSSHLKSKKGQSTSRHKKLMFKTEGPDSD

[2] = biological target: Aldehyde dehydrogenase, mitochondrial (Homo sapiens) (UniProt P05091); assay: qHTS for Inhibitors of the Aldehyde Dehydrogenase Family (ALDH2) Primary screen (AID 2061308); conditions: ALDH2 enzyme inhibition qHTS, 1536-well; at 56 µM (top of the series);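 note: plate controls were vehicle for no effect and reference inhibitor for full effect; nearly all actives have a fitted effect of over 55% in size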
[3] = biological target: Retinaldehyde dehydrogenase 3 (Homo sapiens) (UniProt P47895); assay: qHTS for Inhibitors of the Aldehyde Dehydrogenase Family (ALDH1A3) Primary screen (AID 2061315); conditions: ALDH inhibition qHTS; at 56 µM (top of the series);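 note: plate controls were DMSO vehicle for no effect and reference inhibitor for full effect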
[4] = biological target: Retinaldehyde dehydrogenase 3 (Homo sapiens) (UniProt P47895); assay: qHTS for Inhibitors of the Aldehyde Dehydrogenase Family (ALDH1A3) Validation screen (AID 2061312); conditions: ALDH1A3 enzyme inhibition qHTS validation, fluorescence; at 84.7 µM (top of the series); note: % is set by controls: 0 for no effect and ±100 for the full control effect; nearly all actives have a fitted effect of over 45% in size
[5] = biological target: Aldehyde dehydrogenase, mitochondrial (Homo sapiens) (UniProt P05091); assay: qHTS for Inhibitors of the Aldehyde Dehydrogenase Family (ALDH2) Confirmatory screens (AID 2061303; active = well fitted inhibition curve with a large enough effect; title and protocol of this record describe different tests; note: % is set by controls: 0 for no effect and ±100 for the full control effect; nearly all actives have a fitted effect of over 45% in size); conditions: ALDH inhibition qHTS; at 45.4 µM (top of the series)
[6] = qHTS for Inhibitors of the Aldehyde Dehydrogenase Family (ALDH1A2, ALDH1A3, ALDH2, ALDH3A1) (AID 2061307); conditions: ALDH inhibition qHTS; at 50.3 µM (top of the series); note: % is set by controls: 0 for no effect and ±100 for the full control effect; nearly all actives have a fitted effect of over 50% in size

Nc1ccc(N)c([N+](=O)[O-])c1
inactive: activation [1] 23.4%

O=C(Nc1cccc(C(F)(F)F)c1)c1ccccc1NCc1ccncc1
inactive: activation [1] 27.7% | activity change, negative = inhibition [2] 1.57% | activity change, negative = inhibition [3] -2.55%

CN([C@H]1c2cc(OCCCC(F)(F)F)ccc2OC(C)(C)[C@@H]1O)S(C)(=O)=O
inactive: activation [1] 4.3% | activity change, negative = inhibition [2] 2.08% | activity change, negative = inhibition [4] -23.3% | activity change, negative = inhibition [3] -13.9%

COc1ccc(-c2c(C)c(C(=O)NN3CCCCC3)nn2-c2ccc(Cl)cc2Cl)cc1
inactive: activation [1] 23.9% | activity change, negative = inhibition [2] -7.64% | activity change, negative = inhibition [4] -23.5% | activity change, negative = inhibition [3] -6.38%

N#Cc1ccc(-c2ccc(NC(=O)Nc3ccc(-c4ccnc5nc[nH]c45)cc3)cc2)cc1
inactive: activation [1] 6.25% | activity change, negative = inhibition [2] -22.9% | activity change, negative = inhibition [3] 15.3%

N#Cc1ccc2c(c1)CCN(CCC1CCC(NC(=O)c3ccnc4ccccc34)CC1)C2 (stereo not given)
inactive: activation [1] -9.55% | activity change, negative = inhibition [5] -11% | activity change, negative = inhibition [6] -12.5% | activity change, negative = inhibition [2] -9.64% | activity change, negative = inhibition [3] -22.3%

Source: PubChem BioAssay (NCATS)
